# Measurements as given in publication PMC4111544.
# Sequences of proteins named here, by UniProt entry; tags and fusion partners are left off. A change or cut given only in a name is not applied to a line headed by its entry.
# UniProt Q8I431: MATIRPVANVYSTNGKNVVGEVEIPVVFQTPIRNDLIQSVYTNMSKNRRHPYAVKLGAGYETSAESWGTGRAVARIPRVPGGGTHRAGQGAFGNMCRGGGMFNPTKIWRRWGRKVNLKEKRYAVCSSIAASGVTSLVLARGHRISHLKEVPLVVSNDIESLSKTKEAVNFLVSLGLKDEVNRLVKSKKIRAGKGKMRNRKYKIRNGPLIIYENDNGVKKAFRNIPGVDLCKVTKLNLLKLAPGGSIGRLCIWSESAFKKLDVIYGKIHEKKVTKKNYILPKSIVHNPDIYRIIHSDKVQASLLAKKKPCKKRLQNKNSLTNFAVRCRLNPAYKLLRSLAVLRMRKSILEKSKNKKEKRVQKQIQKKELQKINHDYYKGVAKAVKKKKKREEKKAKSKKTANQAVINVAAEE
# UniProt Q8IKK7: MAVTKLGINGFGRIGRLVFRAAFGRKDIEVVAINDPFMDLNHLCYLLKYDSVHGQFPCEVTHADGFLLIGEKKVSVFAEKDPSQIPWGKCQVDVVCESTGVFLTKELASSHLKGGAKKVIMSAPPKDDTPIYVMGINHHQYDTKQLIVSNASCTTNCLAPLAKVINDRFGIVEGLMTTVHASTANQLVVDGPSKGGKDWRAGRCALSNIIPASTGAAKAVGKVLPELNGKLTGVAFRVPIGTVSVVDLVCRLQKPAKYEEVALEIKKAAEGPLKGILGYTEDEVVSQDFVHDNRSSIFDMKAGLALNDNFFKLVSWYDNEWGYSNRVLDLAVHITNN
# UniProt Q8I6U8: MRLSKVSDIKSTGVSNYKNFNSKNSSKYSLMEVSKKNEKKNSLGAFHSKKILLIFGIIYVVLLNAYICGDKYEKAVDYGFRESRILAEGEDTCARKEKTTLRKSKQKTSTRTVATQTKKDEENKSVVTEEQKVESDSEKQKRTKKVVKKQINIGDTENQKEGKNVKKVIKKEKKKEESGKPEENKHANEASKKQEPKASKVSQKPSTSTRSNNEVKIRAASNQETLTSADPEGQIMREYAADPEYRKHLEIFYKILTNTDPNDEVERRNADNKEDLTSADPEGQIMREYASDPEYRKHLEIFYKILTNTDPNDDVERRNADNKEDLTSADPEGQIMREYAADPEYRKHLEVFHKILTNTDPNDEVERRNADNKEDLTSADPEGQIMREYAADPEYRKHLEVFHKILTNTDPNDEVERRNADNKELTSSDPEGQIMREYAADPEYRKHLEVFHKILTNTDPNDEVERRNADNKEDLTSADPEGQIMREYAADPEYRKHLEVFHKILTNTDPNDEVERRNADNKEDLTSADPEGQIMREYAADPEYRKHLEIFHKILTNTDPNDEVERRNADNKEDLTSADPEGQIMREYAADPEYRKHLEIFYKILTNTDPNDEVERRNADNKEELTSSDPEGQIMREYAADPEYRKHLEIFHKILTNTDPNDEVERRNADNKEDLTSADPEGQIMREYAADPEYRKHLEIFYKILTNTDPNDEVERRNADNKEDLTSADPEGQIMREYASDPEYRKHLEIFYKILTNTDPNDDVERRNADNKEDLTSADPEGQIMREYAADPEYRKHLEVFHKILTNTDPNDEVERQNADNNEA
# UniProt Q8IC05: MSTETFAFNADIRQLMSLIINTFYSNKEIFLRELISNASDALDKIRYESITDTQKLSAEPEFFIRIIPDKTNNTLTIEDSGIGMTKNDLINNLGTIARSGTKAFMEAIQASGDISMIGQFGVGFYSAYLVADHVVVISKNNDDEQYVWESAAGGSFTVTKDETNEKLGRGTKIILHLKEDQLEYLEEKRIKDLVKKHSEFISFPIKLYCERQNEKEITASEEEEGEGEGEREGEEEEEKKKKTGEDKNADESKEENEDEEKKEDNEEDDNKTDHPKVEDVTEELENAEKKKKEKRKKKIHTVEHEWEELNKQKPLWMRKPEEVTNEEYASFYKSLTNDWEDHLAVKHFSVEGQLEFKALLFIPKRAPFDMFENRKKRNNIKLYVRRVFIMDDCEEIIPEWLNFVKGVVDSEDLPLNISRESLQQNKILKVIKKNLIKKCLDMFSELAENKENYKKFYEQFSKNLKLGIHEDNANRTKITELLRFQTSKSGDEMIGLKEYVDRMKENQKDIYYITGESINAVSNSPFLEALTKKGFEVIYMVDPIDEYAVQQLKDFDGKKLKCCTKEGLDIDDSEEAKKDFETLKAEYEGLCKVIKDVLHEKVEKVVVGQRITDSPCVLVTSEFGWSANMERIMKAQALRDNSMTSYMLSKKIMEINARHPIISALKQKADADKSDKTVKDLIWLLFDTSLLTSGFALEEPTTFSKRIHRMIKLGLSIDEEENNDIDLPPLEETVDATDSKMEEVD
# Results are given in words; binding and its absence hold for the method and conditions named. Binding seen in cells or lysates may run through a third protein. Here binding means that the protein was enriched with, or labelled near, the bait; the list need not be complete. Where a sequence is shown, tags or fusion partners need not be part of it.
# Biological target: T1, small exported membrane protein 1 (SEMP1) with a C-terminal 3xHA tag (Plasmodium falciparum) (UniProt Q8IC43)
# T1 sequence: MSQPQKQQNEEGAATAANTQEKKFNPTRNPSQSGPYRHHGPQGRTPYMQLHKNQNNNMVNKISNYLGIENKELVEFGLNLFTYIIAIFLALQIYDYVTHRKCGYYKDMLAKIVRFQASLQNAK
# Test: affinity purification with mass spectrometry; trophozoite stage 3D7 parasites expressing SEMP1-3xHA cross-linked with 1% formaldehyde, saponin released, lysed in 1% SDS and sonicated; α-HA affinity matrix, 4 °C, 16 h; washed with 50 mM Tris-HCl pH 7.4, 150 mM NaCl, 1 mM EDTA, 1% NP40; eluted with HA peptide; LC-MS/MS of TCA precipitated elution or Coomassie-stained gel slices; negative control with excess HA peptide during binding
row,Substance,binding
1,60S ribosomal protein L4 (from UniProt Q8I431 1-411),binds
2,GAPDH (PF3D7_1462800) (from UniProt Q8IKK7 1-337),binds
3,Glycophorin Binding Protein GBP (from UniProt Q8I6U8),binds
4,HSP90 (PF3D7_0708400) (from UniProt Q8IC05 1-745),binds
5,Pf332 (from UniProt Q8IHN4 1-6093),binds
6,PfHsp70-x,binds
7,parasite-infected erythrocyte surface protein 2 (PIESP2) (from UniProt Q8I488),binds
